Results are given in words; binding and its absence hold for the method and conditions named. Some binding calls cover weakened binding; strength is not graded here.
Assays:
[1] = biological target: T1, mouse CD8α, Lyt2.2 allele (mouse, UniProt P01731 28-247); assay: flow cytometry on BW58 cells
T1 construct: On the cells it is paired with CD8β (BW58 is Lyt2.2+, Lyt3+); also called CD8a Lyt2.2; CD8-Lyt2.2

Sequences of proteins named here, by UniProt entry; tags and fusion partners are left off. A change or cut given only in a name is not applied to a line headed by its entry. Residues count along the entry.
UniProt P01731: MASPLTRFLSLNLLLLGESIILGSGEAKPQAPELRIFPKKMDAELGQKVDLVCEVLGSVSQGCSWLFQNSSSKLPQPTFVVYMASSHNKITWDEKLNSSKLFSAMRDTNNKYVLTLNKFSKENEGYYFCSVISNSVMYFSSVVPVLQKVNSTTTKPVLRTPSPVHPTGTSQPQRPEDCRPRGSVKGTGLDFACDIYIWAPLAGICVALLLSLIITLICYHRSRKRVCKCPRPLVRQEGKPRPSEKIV
UniProt P10300, residues 22-213: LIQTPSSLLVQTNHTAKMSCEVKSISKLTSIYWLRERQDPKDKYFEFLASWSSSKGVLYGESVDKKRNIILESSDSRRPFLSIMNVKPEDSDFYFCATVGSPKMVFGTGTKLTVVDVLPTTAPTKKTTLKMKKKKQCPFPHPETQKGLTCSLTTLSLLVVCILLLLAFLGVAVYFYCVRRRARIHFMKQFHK

[2] = biological target: T1, mouse CD8α, Lyt2.2 allele; assay: flow cytometry on cell lines
[3] = biological target: T1, mouse CD8α, Lyt2.2 allele; assay: figure legend on epitope specificity
[4] = biological target: T1, mouse CD8α, Lyt2.2 allele; assay: flow cytometry, FITC-2.43 minibody on primary cells of B/6 mice
[5] = biological target: T1, mouse CD8α, Lyt2.2 allele; assay: flow cytometry on BW58 cells (Lyt2.2+), detection with goat anti-mouse IgG2a-PE
[6] = biological target: T1, mouse CD8α, Lyt2.2 allele; assay: flow cytometry on primary cells of B/6 (Lyt2.2+) mice, FITC-2.43 minibody with PE-anti-CD4
[7] = biological target: T1, mouse CD8α, Lyt2.2 allele; assay: flow cytometry, FITC-2.43 minibody on primary cells of B/6 mice, compared with a commercial FITC-anti-CD8 antibody
[8] = biological target: T1, mouse CD8α, Lyt2.2 allele; assay: flow cytometry on BW58 cells (Lyt2.2+), detection with anti-mouse IgG2a-PE; control: secondary antibody only [left panel BW58]
[9] = biological target: mouse CD8β (Lyt3) (mouse) (UniProt P10300); assay: flow cytometry on cell lines
[10] = biological target: mouse CD8β (Lyt3) (mouse) (UniProt P10300); assay: flow cytometry on BW58 cells (Lyt2.2+, Lyt3+), detection with goat anti-mouse IgG2a-PE
[11] = biological target: mouse CD8β (Lyt3) (mouse) (UniProt P10300); assay: flow cytometry on TK-1 cells (Lyt2.1+, Lyt3+), detection with goat anti-mouse IgG2a-PE
[12] = biological target: mouse CD8β (Lyt3) (mouse) (UniProt P10300); assay: flow cytometry on BW58 cells (reduced compared with the other two minibodies) and on TK-1 cells

Measured: binding

B1: anti-mCD8 2.43 minibody (other)
scFv: EVQLVESGGGLVQPGRSLKLSCAASGFTFSNYYMAWVRQAPTKGLEWVAYINTGGGTTYYRDSVKGRFTISRDDAKSTLYLQMDSLRSEDTATYYCTTAIGYYFDYWGQGVMVTVSSGSTSGGGSGGGSGGGGSSDIQLTQSPASLSASLGETVSIECLASEDIYSYLAWYQQKPGKSPQVLIYAANRLQDGVPSRFSGSGSGTQYSLKISGMQPEDEGDYFCLQGSKFPYTFGAGTKLELKLEPRGPTIKPCPPCKCPAPNLLGGPGSVRAPQVYVLPPPEEEMTKKQVTLTCMVTDFMPEDIYVEWTNNGKTELNYKNTEPVLDSDGSYFMYSKLRVEKKNWVERNSYSCSVVHEGLHNYHTTKSFSRTPGKAAAAGHLPETGAGHHHHHHAAA
notes: Minibody (scFv-hinge-CH3 homodimer, about 80 kDa; 19% higher multimers); Some assays used the NOTA/64Cu-labelled or FITC-labelled protein
binds: [1] | [2] | [3] | [4] | [5] | [6] | [7] | [8]

B2: anti-mCD8 YTS 156 minibody (protein)
scFv: EVKLQESGPSLVQPSQTLSLTCSVSGFSLISDSVHWVRQPPGKGLEWMGGIWADGSTDYNSALKSRLSISRDTSKSQGFLKMNSLQTDDTAIYFCTSNRESYYFDYWGQGVMVTVSSGSTSGGGSGGGSGGGGSSDIQMTQSPASLSASLGDKVTITCQASQNIDKYIAWYQQKPGKAPRQLIHYTSTLVSGTPSRFSGSGSGRDYSFSISSVESEDIASYYCLQYDTLYTFGAGTKLELKLEPRGPTIKPCPPCKCPAPNLLGGPGSVRAPQVYVLPPPEEEMTKKQVTLTCMVTDFMPEDIYVEWTNNGKTELNYKNTEPVLDSDGSYFMYSKLRVEKKNWVERNSYSCSVVHEGLHNYHTTKSFSRTPGKAAAAGHLPETGAGHHHHHHAAA
binds: [9] | [10] | [11] | [12]
